Source: PMC6899631, “An essential pentatricopeptide repeat protein in the apicomplexan remnant chloroplast”

What was measured:
[1] = tested on: AmtR (Mycobacterium smegmatis); assay: pull-down; conditions: control protein; Pull-down: 10 mM HEPES pH 7.5, 20 mM KCl, 1 mM MgCl2, 1 mM DTT, room temperature 15 min; 400 nM biotinylated RNA, 800 nM protein (Results state 1:1 molar); recombinant protein; protein details: His (anti-His detection); label: 3' biotin (pull-down)
PfPPR1 (tag removed) = biological target: T1, PfPPR1 (tag removed) (UniProt Q8IM30); assay: pull-down; conditions: TRX tag removed; Pull-down: 10 mM HEPES pH 7.5, 20 mM KCl, 1 mM MgCl2, 1 mM DTT, room temperature 15 min; 400 nM biotinylated RNA, 800 nM protein (Results state 1:1 molar); recombinant protein; residues 121-608; label: 3' biotin (pull-down)
T1 sequence (looked up): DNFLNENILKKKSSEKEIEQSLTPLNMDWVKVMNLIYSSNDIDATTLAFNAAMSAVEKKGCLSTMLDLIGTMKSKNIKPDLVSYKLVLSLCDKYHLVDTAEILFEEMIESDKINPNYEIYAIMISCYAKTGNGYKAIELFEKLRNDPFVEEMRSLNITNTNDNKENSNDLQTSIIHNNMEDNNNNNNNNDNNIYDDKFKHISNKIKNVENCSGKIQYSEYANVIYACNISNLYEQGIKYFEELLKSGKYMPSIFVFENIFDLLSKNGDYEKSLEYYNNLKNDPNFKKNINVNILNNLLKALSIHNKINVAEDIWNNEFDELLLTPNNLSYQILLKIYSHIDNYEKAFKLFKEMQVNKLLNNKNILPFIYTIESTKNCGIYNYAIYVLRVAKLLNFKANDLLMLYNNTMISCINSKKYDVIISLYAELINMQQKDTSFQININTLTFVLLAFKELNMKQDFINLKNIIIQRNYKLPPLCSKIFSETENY

ACGACAUUAUAUGGUCGGA [RNA oligo 1]
binding result [1]: no binding | binding result (PfPPR1 (tag removed)): binds

The exact form of at least one protein or probe is not confirmed. For some assays here: A negative result means that nothing was seen under these conditions. For some assays here: At least one verdict rests on a figure or table, not on a statement of the authors. For some assays here: Protein sequences can lack the tags named with them.
